Consider 3 molecules from article PMC5828088.

Sequences of proteins named here, by UniProt entry; tags and fusion partners are left off. Residues count along the entry.
UniProt Q07021, residues 74-282: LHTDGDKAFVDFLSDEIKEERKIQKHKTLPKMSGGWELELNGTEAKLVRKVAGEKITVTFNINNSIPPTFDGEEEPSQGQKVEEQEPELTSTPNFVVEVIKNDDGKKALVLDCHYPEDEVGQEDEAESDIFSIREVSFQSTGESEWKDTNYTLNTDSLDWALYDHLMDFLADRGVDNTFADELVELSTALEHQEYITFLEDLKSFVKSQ
UniProt P67775: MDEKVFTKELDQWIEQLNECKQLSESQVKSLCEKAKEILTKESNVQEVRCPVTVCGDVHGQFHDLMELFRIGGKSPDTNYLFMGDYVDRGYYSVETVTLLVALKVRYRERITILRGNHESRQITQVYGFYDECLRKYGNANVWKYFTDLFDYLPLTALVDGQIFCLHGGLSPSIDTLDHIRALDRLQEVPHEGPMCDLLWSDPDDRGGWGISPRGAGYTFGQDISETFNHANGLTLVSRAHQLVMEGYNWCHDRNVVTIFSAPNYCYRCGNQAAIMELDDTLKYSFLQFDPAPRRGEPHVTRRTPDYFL

Read-outs that look alike come from different tables or passages of the source. Results are given in words; binding and its absence hold for the method and conditions named. In cells and extracts the contact can be indirect. A yes stands for co-enrichment or nearness to the bait. Other partners may have been found. Tags and fused reporters may be left off the sequences shown.

Assay [1] concerns the target T1, Flag-PKCζ fusion protein (UniProt Q05513).
T1 sequence: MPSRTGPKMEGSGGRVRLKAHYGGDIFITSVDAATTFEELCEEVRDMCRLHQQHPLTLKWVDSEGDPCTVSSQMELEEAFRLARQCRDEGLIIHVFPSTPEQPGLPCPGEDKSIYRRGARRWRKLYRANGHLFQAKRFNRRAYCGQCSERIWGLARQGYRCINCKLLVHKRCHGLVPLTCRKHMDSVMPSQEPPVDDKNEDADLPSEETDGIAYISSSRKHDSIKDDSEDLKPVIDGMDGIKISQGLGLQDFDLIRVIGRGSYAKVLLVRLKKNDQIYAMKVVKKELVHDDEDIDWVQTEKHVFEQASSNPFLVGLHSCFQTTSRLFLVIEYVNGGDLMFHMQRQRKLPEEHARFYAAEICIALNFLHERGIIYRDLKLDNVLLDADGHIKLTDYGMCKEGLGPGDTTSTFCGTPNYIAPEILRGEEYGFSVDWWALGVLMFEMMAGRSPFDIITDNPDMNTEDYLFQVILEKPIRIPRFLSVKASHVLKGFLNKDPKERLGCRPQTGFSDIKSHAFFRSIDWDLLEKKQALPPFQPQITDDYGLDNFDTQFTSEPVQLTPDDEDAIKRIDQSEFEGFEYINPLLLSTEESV
Kind of assay: affinity purification with mass spectrometry; anti-Flag antibody conjugated agarose beads on precleared extracts of Flag-PKCζ stable MDA-MB-231 cells (serum starved 12 h; lysis buffer 40 mM Tris, 120 mM NaCl, 1% Triton X-100, 1 mM NaF, 1 mM Na3VO4); LC-MS/MS; hits filtered with the CRAPome database.

Assay [2] addresses T1, Flag-PKCζ fusion protein. The assay is described as above. The source holds these as a separate data set.

With “complement component C1qbinding protein (C1QBP) (from UniProt Q07021 74-282)”, the binding entry with Flag-PKCζ fusion protein [1] is listed as “binds”.
For “protein phosphatase 2 catalytic subunit alpha (PPP2CA) (from UniProt P67775 1-309) (enzyme)”, in the assay with Flag-PKCζ fusion protein [1], the binding result was “binds”.

B1: LLGL1 (protein, UniProt Q15334 1-1064)
chain: MMKFRFRRQGADPQREKLKQELFAFNKTVEHGFPNQPSALAFDPELRIMAIGTRSGAVKIYGAPGVEFTGLHRDAATVTQMHFLTGQGRLLSLLDDSSLHLWEIVHHNGCAHLEEALSFQLPSRPGFDGASAPLSLTRVTVVLLVAASDIAALGTEGSSVFFLDVTTLTLLEGQTLAPGEVLRSVPDDYRCGKALGPVESLQGHLRDPTKILIGYSRGLLVIWNQASQCVDHIFLGNQQLESLCWGRDSSTVVSSHSDGSYAVWSVDAGSFPTLQPTVATTPYGPFPCKAINKILWRNCESGGHFIIFSGGMPRASYGDRHCVSVLRAETLVTLDFTSRIIDFFTVHSTRPEDEFDDPQALAVLLEEELVVLDLQTPGWPAVPAPYLAPLHSSAITCSAHVASVPAKLWARIVSAGEQQSPQPVSSALSWPITGGRNLAQEPSQRGLLLTGHEDGTVRFWDASGVALRPLYKLSTAGLFQTDCEHADSLAQAAEDDWPPFRKVGCFDPYSDDPRLGVQKVALCKYTAQMVVAGTAGQVLVLELSDVPVEQAVSVAIIDLLQDREGFTWKGHERLSPRTGPLPWPAGFQPRVLVQCLPPAAVTAVTLHTEWSLVAFGTSHGFGLFDYQRKSPVLARCTLHPNDSLAMEGPLSRVKSLKKSLRQSFRRIRKSRVSGKKRAANASSKLQEANAQLAEQACPHDVEMTPVQRRIEPRSADDSLSGVVRCLYFADTFLRDGAHHGPTMWAGTNSGSVFAYALEVPAAAVGGEKRPEQAVEAVLGKEVQLMHRAPVVAIAVLDGRGRPLPEPYEASRDLAQAPDMQGGHAVLIASEEQFKVFTLPKVSAKTKFKLTAHEGCRVRKVALATFASVACEDYAETCLACLTNLGDVHVFSVPGLRPQVHYSCIRKEDISGIASCVFTRHGQGFYLISPSEFERFSLSARNITEPLCSLDINWPRDATQASYRIRESPKLSQANGTPSILLAPQSLDGSPDPAHSMGPDTPEPPEAALSPMSIDSATSADTTLDTTGDVTVEDVKDFLGSSEESEKNLRNLAEDEAHACAILIK
Consider B1, for which the binding result with Flag-PKCζ fusion protein [2] is “binds”.
